Experimental data reported in patent publication US20090324491A1.
Results are given in words; binding and its absence hold for the method and conditions named. Some entries that bind do so weakly or less than the wild type.

B1: anti-EREG mouse monoclonal antibody EP20 (B2#30) (antibody, mouse IgG1, V domains shown)
VH: QVQLQQSGAELVRPGVSVKISCKGSGYTFTVYSLHWVKQSHARSLEWIGVISTYYGDAIYNQKFKGKATMTVDKSSSTAYMELARLTSEDSAIYYCAREGNGNPLDYWGQGTTLTVSS
VL: QIVLTQSPAIMSASLGERVTMTCTASSSVSSSYLHWYQQKPGSSPKLWIYSTSNLASGVPARFSGSGSGTSYSLTITNMEAEDSATYYCHQYHRSPLTFGAGTKLELK
B2: anti-EREG mouse monoclonal antibody EP27 (B3#18) (antibody, mouse IgG2b, V domains shown)
VH: EDQLQQSGAELVKPGASVKLSCTASGFNIKDTYIQWVKLRPEQGLEWIGRIDPLNGNTKYVPKFQGKATITADTSSNTAYLQLSSLTSEDTAVYYCVRSGTLFDFWGQGTTLTVSS
VL: DIQMTQSPSSLSASLGGKVTITCKASQDIHKYIAWYQHKPGKGPRLLIQYTSTLQPGIPSRFSGSGSGRDYSFSISNLEPEDIATYYCLQYDNLRTFGGGTKLEIK
B3: anti-EREG mouse monoclonal antibody EP29 (B3#41) (antibody, mouse IgG1, V domains shown)
VH: EVQLQQSGTVLARPGASVKMSCKASGYTFTSYWMHWVKQRPGQGLEWIGAIYPGNSDSYNQKFKGKAKLTAVTSTSTAYMELSSLTNEDSAVYYCTSVMAYWGQGTSVTVSS
VL: DIQMTQSPSSLSASLGERVSLTCRASQDIGNSLNWLQQEPDGTIKRLIYATSNLDSGVSKRFSGSRSGSDYSLTISSLESEDFVDYYCLQYASSPWTFGGGTKLEIK

Tests used:
[1] = target: T1, full-length human EREG (epiregulin) (human) (UniProt O14944); test: flow cytometry on EREG_DG cells (FIG. 3)
T1 sequence: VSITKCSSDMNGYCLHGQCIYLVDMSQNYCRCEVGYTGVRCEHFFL

[2] = target: T1, full-length human EREG (epiregulin) (human); test: flow cytometry on DLD1 human colon cancer cells (FIG. 4)
[3] = target: T1, full-length human EREG (epiregulin) (human); test: immunohistological staining of clinical colon cancer tissue array, 50 µg/mL antibody (FIG. 20)

binding [1] | binding [2] | binding [3] | Binder
binds | binds |  | B1
binds | binds | binds | B2
binds | binds |  | B3
